Experimental data: article PMC11015545
No constants are given. Whether binding was seen depends on the method and setting. In cells and extracts the contact can be indirect. Some results given as binding are weak or reduced against the parent protein; the word gives no strength.

The chains behind the UniProt entries cited, without tags or fusion partners.
UniProt Q15796: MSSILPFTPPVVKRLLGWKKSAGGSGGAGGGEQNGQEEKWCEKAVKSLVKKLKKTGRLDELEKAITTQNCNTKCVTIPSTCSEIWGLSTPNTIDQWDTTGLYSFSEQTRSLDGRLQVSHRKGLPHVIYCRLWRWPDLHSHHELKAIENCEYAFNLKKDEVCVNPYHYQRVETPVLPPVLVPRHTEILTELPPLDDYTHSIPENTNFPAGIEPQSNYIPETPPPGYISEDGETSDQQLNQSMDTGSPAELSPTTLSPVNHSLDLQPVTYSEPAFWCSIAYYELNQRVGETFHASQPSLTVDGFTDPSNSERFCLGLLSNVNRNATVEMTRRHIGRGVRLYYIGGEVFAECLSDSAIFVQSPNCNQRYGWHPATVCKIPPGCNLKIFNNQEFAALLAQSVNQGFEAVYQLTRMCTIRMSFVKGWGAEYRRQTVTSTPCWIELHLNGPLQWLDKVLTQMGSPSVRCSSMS
UniProt P07101: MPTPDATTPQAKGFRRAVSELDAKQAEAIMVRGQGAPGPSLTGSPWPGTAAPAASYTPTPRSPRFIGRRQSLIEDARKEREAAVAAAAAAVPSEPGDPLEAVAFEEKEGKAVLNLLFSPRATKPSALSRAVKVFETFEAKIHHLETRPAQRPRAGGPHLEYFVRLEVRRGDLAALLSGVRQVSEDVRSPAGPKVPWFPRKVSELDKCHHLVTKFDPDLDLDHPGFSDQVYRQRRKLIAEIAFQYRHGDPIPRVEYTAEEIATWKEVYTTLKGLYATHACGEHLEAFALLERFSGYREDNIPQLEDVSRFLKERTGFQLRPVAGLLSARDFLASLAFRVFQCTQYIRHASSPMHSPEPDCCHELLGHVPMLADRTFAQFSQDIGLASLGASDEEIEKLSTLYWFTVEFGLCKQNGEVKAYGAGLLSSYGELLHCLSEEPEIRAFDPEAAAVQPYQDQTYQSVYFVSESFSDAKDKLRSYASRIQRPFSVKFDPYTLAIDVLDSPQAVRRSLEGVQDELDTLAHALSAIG

Tests used:
[1] = target: GST-Smad2 fusion protein (UniProt Q15796); assay: pull-down; GST-Smad2 (or GST) from BL21 enriched on GST beads, incubated with lysate of HEK293T transfected with Flag-TH, 3 h, 4 °C; Western blot; only the target purified
[2] = target: HA-Smad2 (UniProt Q15796); assay: co-IP; Flag-TH and HA-Smad2 plasmids co-transfected into HEK293T; lysed after 48 h in IP lysis buffer (50 mM Tris-HCl pH 7.4, 150 mM NaCl, 5 mM EDTA, 1% NP-40); Flag-beads or HA-beads, 4 °C, 3 h; Western blot
[3] = target: endogenous Smad2 (human (endogenous in Huh7)) (UniProt Q15796); assay: co-IP; Huh7 cells with exogenously expressed Flag-TH, endogenous Smad2; cells treated with TGFβ1
[4] = target: endogenous Smad2 (human (endogenous in Huh7)) (UniProt Q15796); assay: co-IP; endogenous proteins in Huh7 lysate; 2 μg anti-TH or anti-Smad2 antibody, 4 °C, 8 h; Protein A/G beads 2 h; Western blot

## Flag-TH (tyrosine hydroxylase) (from UniProt P07101 1-528) (enzyme)
[1]
  binding: binds
[2]
  binding: binds

## Flag-TH overexpressed in Huh7 cells (from UniProt P07101 1-528) (enzyme)
[3]
  binding: binds

## endogenous TH (tyrosine hydroxylase) (from UniProt P07101 1-528) (enzyme)
[4]
  binding: binds
